Laboratory results published in PMC6274781.

Assays:
Assay in all cases: two-hybrid; yeast strain Y2H Gold; RcGPXs as bait, Arabidopsis genes as prey (pGBKT7 and pGADT7 vectors); growth on SD-Trp-Leu-His solid media, SD-Trp-Leu as control; empty vectors as negative control
[1] = biological target: Rhodiola crenulata glutathione peroxidase RcGPX2 (Rhodiola crenulata)
[2] = biological target: Rhodiola crenulata glutathione peroxidase RcGPX4 (Rhodiola crenulata)
[3] = biological target: Rhodiola crenulata glutathione peroxidase RcGPX5 (Rhodiola crenulata)
[4] = biological target: Rhodiola crenulata glutathione peroxidase RcGPX7 (Rhodiola crenulata)
[5] = biological target: Rhodiola crenulata glutathione peroxidase RcGPX8 (Rhodiola crenulata)

| Binder | binding [1] | binding [2] | binding [3] | binding [4] | binding [5] |
| --- | --- | --- | --- | --- | --- |
| AtTrxm2 (protein, UniProt Q9SEU8 1-186) MAAFTCTSRPPISLRSETRIVSSSPSASSLSSRRMFAVLPESSGLRIRLSLSPASLTSIHQPRVSRLRRAVVCEAQETTTDIQVVNDSTWDSLVLKATGPVVVDFWAPWCGPCKMIDPLVNDLAQHYTGKIKFYKLNTDESPNTPGQYGVRSIPTIMIFVGGEKKDTIIGAVPKTTLTSSLDKFLP | binds | binds | binds | binds | binds |
| AtTrxh7 (protein, UniProt Q9XIF4 1-129) MGSNVSSVHDVHSSMEITSNGFVVEIESRRQWKSLFDSMKGSNKLLVIDFTAVWCGPCKAMEPRVREIASKYSEAVFARVDVDRLMDVAGTYRAITLPAFVFVKRGEEIDRVVGAKPDELVKKIEQHRV | no binding | no binding | binds | no binding | no binding |
| AtTrx4 (protein, UniProt Q39239 1-119) MAAEEGQVIGCHTNDVWTVQLDKAKESNKLIVIDFTASWCPPCRMIAPIFNDLAKKFMSSAIFFKVDVDELQSVAKEFGVEAMPTFVFIKAGEVVDKLVGANKEDLQAKIVKHTGVTTA | no binding | no binding | binds | no binding | no binding |
| AtTrxf2 (protein, UniProt Q9XFH9 1-185) MPLSLRLAPSPTSFRYSPITSTGAGGFSPVKQHCRIPNSGVATKIGFCSGGGGVLDSGRRIGSCVVRCSLETVNVTVGQVTEVDKDTFWPIVKAAGDKIVVLDMYTQWCGPCKVIAPKYKELSEKYQDMVFLKLDCNQDNKPLAKELGIRVVPTFKILKDNKVVKEVTGAKYEDLLAAIEAARSG |  |  | binds |  | binds |
| AtTrxm3 (protein, UniProt Q9SEU7 1-173) MAISSSSSSICFNPTRFHTARHISSPSRLFPVTSFSPRSLRFSDRRSLLSSSASRLRLSPLCVRDSRAAEVTQRSWEDSVLKSETPVLVEFYTSWCGPCRMVHRIIDEIAGDYAGKLNCYLLNADNDLPVAEEYEIKAVPVVLLFKNGEKRESIMGTMPKEFYISAIERVLNS | no binding | no binding | no binding | binds | no binding |
| AtCML38 (calmodulin gene) (protein, UniProt Q9SRE6 1-177) MKNNTQPQSSFKKLCRKLSPKREDSAGEIQQHNSSNGEDKNRELEAVFSYMDANRDGRISPEELQKSFMTLGEQLSDEEAVAAVRLSDTDGDGMLDFEEFSQLIKVDDEEEKKMELKGAFRLYIAEGEDCITPRSLKMMLKKLGESRTTDDCRVMISAFDLNADGVLSFDEFALMMR | binds | binds | binds | binds | no binding |
| AtNAC102, NAC (NAM/ATAF/CUC transcription factor) family member (protein, UniProt Q8H115 1-312) MDFALFSSISIFEINHKDPPIRRFIKTQNRILSTRKQQGTFPKMKAELNLPAGFRFHPTDEELVKFYLCRRCASEPINVPVIAEIDLYKFNPWELPEMALYGEKEWYFFSHRDRKYPNGSRPNRAAGTGYWKATGADKPIGKPKTLGIKKALVFYAGKAPKGIKTNWIMHEYRLANVDRSASTNKKNNLRLDDWVLCRIYNKKGTMEKYLPAAAEKPTEKMSTSDSRCSSHVISPDVTCSDNWEVESEPKWINLEDALEAFNDDTSMFSSIGLLQNDAFVPQFQYQSSDFVDSFQDPFEQKPFLNWNFAPQG | no binding | no binding | binds | no binding | no binding |
| AtACS2 (protein, UniProt Q06402 1-496) MGLPGKNKGAVLSKIATNNQHGENSEYFDGWKAYDKDPFHLSRNPHGIIQMGLAENQLCLDLIKDWVKENPEASICTLEGIHQFSDIANFQDYHGLKKFRQAIAHFMGKARGGRVTFDPERVVMSGGATGANETIMFCLADPGDVFLIPSPYYAAFDRDLRWRTGVEIIPVPCSSSDNFKLTVDAAEWAYKKAQESNKKVKGLILTNPSNPLGTMLDKDTLTNLVRFVTRKNIHLVVDEIYAATVFAGGDFVSVAEVVNDVDISEVNVDLIHIVYSLSKDMGLPGFRVGIVYSFNDSVVSCARKMSSFGLVSSQTQLMLASMLSDDQFVDNFLMESSRRLGIRHKVFTTGIKKADIACLTSNAGLFAWMDLRHLLRDRNSFESEIELWHIIIDRVKLNVSPGSSFRCTEPGWFRICFANMDDDTLHVALGRIQDFVSKNKNKIVEKASENDQVIQNKSAKKLKWTQTNLRLSFRRLYEDGLSSPGIMSPHSPLLRA | no binding | no binding | no binding | no binding | no binding |
| AtACS6 (protein, UniProt Q9SAR0 1-495) MVAFATEKKQDLNLLSKIASGDGHGENSSYFDGWKAYEENPFHPIDRPDGVIQMGLAENQLCGDLMRKWVLKHPEASICTSEGVNQFSDIAIFQDYHGLPEFRQAVAKFMEKTRNNKVKFDPDRIVMSGGATGAHETVAFCLANPGDGFLVPTPYYPGFDRDLRWRTGVNLVPVTCHSSNGFKITVEALEAAYENARKSNIPVKGLLVTNPSNPLGTTLDRECLKSLVNFTNDKGIHLIADEIYAATTFGQSEFISVAEVIEEIEDCNRDLIHIVYSLSKDMGLPGLRVGIVYSYNDRVVQIARKMSSFGLVSSQTQHLIAKMLSDEEFVDEFIRESKLRLAARHAEITTGLDGLGIGWLKAKAGLFLWMDLRNLLKTATFDSETELWRVIVHQVKLNVSPGGSFHCHEPGWFRVCFANMDHKTMETALERIRVFTSQLEEETKPMAATTMMAKKKKKCWQSNLRLSFSDTRRFDDGFFSPHSPVPPSPLVRAQT | no binding | no binding | no binding | no binding | no binding |
| AtACS7 (protein, UniProt Q9STR4 1-447) MGLPLMMERSSNNNNVELSRVAVSDTHGEDSPYFAGWKAYDENPYDESHNPSGVIQMGLAENQVSFDLLETYLEKKNPEGSMWGSKGAPGFRENALFQDYHGLKTFRQAMASFMEQIRGGKARFDPDRIVLTAGATAANELLTFILADPNDALLVPTPYYPGFDRDLRWRTGVKIVPIHCDSSNHFQITPEALESAYQTARDANIRVRGVLITNPSNPLGATVQKKVLEDLLDFCVRKNIHLVSDEIYSGSVFHASEFTSVAEIVENIDDVSVKERVHIVYSLSKDLGLPGFRVGTIYSYNDNVVRTARRMSSFTLVSSQTQHMLASMLSDEEFTEKYIRINRERLRRRYDTIVEGLKKAGIECLKGNAGLFCWMNLGFLLEKKTKDGELQLWDVILKELNLNISPGSSCHCSEVGWFRVCFANMSENTLEIALKRIHEFMDRRRRF | no binding | no binding | no binding | no binding | no binding |

No constants are given. Whether binding was seen depends on the method and setting. A result given as binding can be weak or reduced; the word gives no strength.
